Assay results as given in patent US20250129140A1, “ANTI-HCMV ANTIBODIES AND ANTIGEN-BINDING FRAGMENTS THEREOF” (ICAHN SCHOOL OF MEDICINE AT MOUNT SINAI, priority 2021, published 2025).
Some of these results come from one statement about several compounds together.

Test system: HCMV BADrUL131
Assay: Dissemination / focus forming unit (FFU) assay in NHDF fibroblasts
Assay type: cell-based, Human cytomegalovirus
Settings: NHDF fibroblast cells; day 7

Molecule | reduction in FFU value compared to M2E10 [%]
9A12: anti-HCMV gH/gL monoclonal antibody, fusion 2; VH SEQ ID NO:59, VL SEQ ID NO:60; chimeric and fully human IgG1 versions (antibody, V domains shown, IgG1 constant regions, anti-HCMV gH/gL monoclonal antibody, fusion 2; chimeric and fully human IgG1 versions) VH: EVQLVESGGVLVQPGGSLRLSCAASGFTFSSHEMNWVRQAPGKGLEWISYISSTGSTIYDADSVKGRFTISRDNAKNSLYLQMNSLRAEDTAVYYCARSSGWYRNYSYGMDVWGQGTTVTVSS VL: DIQMAQSPSSLSASVGDRVTITCRASQGIYNYLAWFQQKPGKAPKSLIYAASSLQTGVPSKFSGSGSGTDFTLTISNLQPEDFATYYCQQYNSFPRTFGQGTKVEIK | ≥ 50
13G1: anti-HCMV gH/gL monoclonal antibody, fusion 3; VH SEQ ID NO:38, VL SEQ ID NO:39; chimeric and fully human IgG1 versions (antibody, V domains shown, IgG1 constant regions, anti-HCMV gH/gL monoclonal antibody, fusion 3; chimeric and fully human IgG1 versions) VH: QVTLKESGPVLVKPTETLTLTCTVSGFSLYNARMGVTWIRQPPGKALEWLAHIFSNDERSYTSSLKNRLTISKDTSKSQVVLTMTNMDPVDTATYYCARIDYSNYIGNWFDPWGQGTLVTVSS VL: DIQMTQSPSSLSASVGDRVTITCRASQSISNYLNWYQQKPGKAPKLLIYAASSLQGGVPSRFSGSGSGTDFTLTISSLQPEDFTTYYCQQSYSTPFTFGGGTKVEIK | ≥ 50
